Assay results published in publication PMC8358012.
These are yes or no findings as the source states them, for the method shown. In cells and extracts the contact can be indirect. Some binding calls cover weakened binding; strength is not graded here.

Protein sequences, listed by entry. Tags and fused reporters are not part of them.
UniProt P10417: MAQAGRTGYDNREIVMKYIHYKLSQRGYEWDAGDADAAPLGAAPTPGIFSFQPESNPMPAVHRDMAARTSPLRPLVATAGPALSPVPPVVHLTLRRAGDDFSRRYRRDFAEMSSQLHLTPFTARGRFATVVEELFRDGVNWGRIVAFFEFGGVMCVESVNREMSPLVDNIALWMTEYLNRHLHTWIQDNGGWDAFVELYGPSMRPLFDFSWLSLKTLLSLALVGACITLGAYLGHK

T1: Bim (mouse (endogenous in FL-P and FL-D cells)), O54918
T1 chain: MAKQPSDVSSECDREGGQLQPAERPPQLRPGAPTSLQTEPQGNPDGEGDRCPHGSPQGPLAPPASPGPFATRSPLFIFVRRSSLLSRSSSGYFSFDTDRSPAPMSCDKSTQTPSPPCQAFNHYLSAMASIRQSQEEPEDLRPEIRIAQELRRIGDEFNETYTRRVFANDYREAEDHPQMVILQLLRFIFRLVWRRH

B1: Mcl-1, P97287 1-331 (protein)
chain: MFGLRRNAVIGLNLYCGGASLGAGGGSPAGARLVAEEAKARREGGGEAALLPGARVVARPPPVGAEDPDVTASAERRLHKSPGLLAVPPEEMAASAAAAIVSPEEELDGCEPEAIGKRPAVLPLLERVSEAAKSSGADGSLPSTPPPPEEEEDDLYRQSLEIISRYLREQATGSKDSKPLGEAGAAGRRALETLRRVGDGVQRNHETAFQGMLRKLDIKNEGDVKSFSRVMVHVFKDGVTNWGRIVTLISFGAFVAKHLKSVNQESFIEPLAETITDVLVRTKRDWLVKQRGWDGFVEFFHVQDLEGGIRNVLLAFAGVAGVGAGLAYLIR
B2: Bcl-XL, Q64373-1 1-233 (protein)
chain: MSQSNRELVVDFLSYKLSQKGYSWSQFSDVEENRTEAPEETEAERETPSAINGNPSWHLADSPAVNGATGHSSSLDAREVIPMAAVKQALREAGDEFELRYRRAFSDLTSQLHITPGTAYQSFEQVVNELFRDGVNWGRIVAFFSFGGALCVESVDKEMQVLVSRIASWMATYLNDHLEPWIQENGGWDTFVDLYGNNAAAESRKGQERFNRWFLTGMTVAGVVLLGSLFSRK

Columns and labels:
[1] = target: Bim (mouse (endogenous in FL-P and FL-D cells)) (UniProt O54918); assay: co-IP; wt FL-P cells (mouse LMPP), treated 4 h with DMSO, 1 µM ABT-737 or 3 µM S63845 plus 20 µM z-VAD-fmk; lysis in 20 mM Tris-HCl, 150 mM NaCl, 10% glycerol, 1% Triton X-100; endogenous Bim precipitated with anti-Bim antibody and agarose G beads, 4 h at 4 °C; western blot of the eluate
[2] = target: Bim (mouse (endogenous in FL-P and FL-D cells)) (UniProt O54918); assay: co-IP; FL-D cells (differentiated 14 d to early B cells), treated with DMSO, 1 µM ABT-737 or 3 µM S63845 in the presence of 20 µM z-VAD-fmk; lysis in 20 mM Tris-HCl, 150 mM NaCl, 10% glycerol, 1% Triton X-100; endogenous Bim precipitated with anti-Bim antibody (isotype control antibody alongside) and agarose G beads, 4 h at 4 °C; western blot of the eluate
[3] = target: T1, Bim (mouse (endogenous in FL-P and FL-D …)); assay: co-IP; wt FL-P cells (mouse LMPP), treated 4 h with DMSO, 1 µM ABT-737 or 3 µM S63845 plus 20 µM z-VAD-fmk; lysis in 20 mM Tris-HCl, 150 mM NaCl, 10% glycerol, 1% Triton X-100; endogenous Bim precipitated with anti-Bim antibody and agarose G beads, 4 h at 4 °C; western blot of the eluate; conditions: remark: other sources report otherwise
[4] = target: T1, Bim (mouse (endogenous in FL-P and FL-D …)); assay: co-IP; FL-D cells (differentiated 14 d to early B cells), treated with DMSO, 1 µM ABT-737 or 3 µM S63845 in the presence of 20 µM z-VAD-fmk; lysis in 20 mM Tris-HCl, 150 mM NaCl, 10% glycerol, 1% Triton X-100; endogenous Bim precipitated with anti-Bim antibody (isotype control antibody alongside) and agarose G beads, 4 h at 4 °C; western blot of the eluate; conditions: remark: other sources report otherwise

Molecule | binding [1] | binding [2] | binding [3] | binding [4]
Bcl-2 (from UniProt P10417 1-236) | binds | binds | – | –
B1 | – | – | binds | binds
B2 | – | – | binds | binds
